# PubChem BioAssay AID1259405 | NCATS | 2018
# Assay: 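Knock-downs that lift recombinant protein yield in hamster ovary cells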 (primary screen)
# Cell system: Chinese hamster CHO-K1 ovary cells with stable secreted eGFP expression
# Knock-down reagent: single siRNA against mouse genes, 0.8 pmol siRNA per well (2 µl of 400 nM stock)
# Duration: 3 days
# Measured: 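Per-well intracellular GFP measured by laser scanning cytometry, plus viability from ATP luminescence, each relative to plate median of non-targeting control wells, in %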
# Scale: GFP, % of control: higher = more GFP per well, higher productivity; viability (ATP), % of control: higher = more viable cells (more ATP)
# Call rule: 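Called active when intracellular GFP, relative to negative control, is at or above 120%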
# This is one part, drawn at random, of about 50,000 deposited reagents. About 4,000 of all reagents (8%) were called active. 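Mouse siRNA library applied to hamster cells; one well for each siRNA.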
gene,PubChem SID,"GFP, % of control","viability (ATP), % of control",activity call
Drd5,SID363571341,119,113,inactive
Drd5,SID363571693,66.7,65,inactive
Drd5,SID363572045,71.2,69.2,inactive
Cyp2d9,SID363547692,84.9,57.3,inactive
Cyp2d9,SID363558461,89.9,73.1,inactive
Cyp2d9,SID363560219,53,56.2,inactive
Nr1d1,SID363581922,87.8,86.6,inactive
Nr1d1,SID363589416,53.7,57.9,inactive
Sectm1a,SID363547080,78.1,80.7,inactive
Sectm1a,SID363549892,54.5,93.4,inactive
Sectm1a,SID363587946,144,164,active
Hydin,SID363540487,40.9,52.4,inactive
Hydin,SID363542239,87.6,94.3,inactive
Hydin,SID363567155,70.8,84.1,inactive
Otx1,SID363569192,104,100,inactive
Otx1,SID363583624,113,81.8,inactive
Prr7,SID363555039,104,87.4,inactive
Prr7,SID363568486,88.1,59.5,inactive
Prr7,SID363586545,57.3,75.9,inactive
Haus1,SID363550025,60.8,50.3,inactive
Haus1,SID363564534,83.5,92.3,inactive
Haus1,SID363588079,100,114,inactive
Rngtt,SID363575057,74.3,64.2,inactive
Rngtt,SID363580689,66.4,63.4,inactive
Rngtt,SID363582801,104,84.7,inactive
Rgs9bp,SID363554804,76.6,61.2,inactive
Rgs9bp,SID363568251,49.8,57.8,inactive
Rgs9bp,SID363586310,64.8,80,inactive
Mrps22,SID363562237,85.8,66.3,inactive
Mrps22,SID363567375,91.7,110,inactive
Mrps22,SID363584732,94.7,68.4,inactive
Fshb,SID363541297,85.7,85.3,inactive
Fshb,SID363555924,40.2,58.4,inactive
Fshb,SID363566213,100,57.4,inactive
Tlx2,SID363568962,54.1,58.1,inactive
Tlx2,SID363583394,61.3,89.4,inactive
Tmem91,SID363542737,73.7,44.1,inactive
Tmem91,SID363546254,92.8,105,inactive
Tmem91,SID363548010,79.1,87.8,inactive
Xkrx,SID363542906,71.4,58.8,inactive
Xkrx,SID363546423,70.7,69.6,inactive
Xkrx,SID363548179,50.7,69.2,inactive
Cacnb2,SID363547287,55.7,68.4,inactive
Cacnb2,SID363558056,42.3,50,inactive
Cacnb2,SID363559814,82.8,95.5,inactive
Oprd1,SID363571199,76.7,64.5,inactive
Oprd1,SID363571551,76.3,82.6,inactive
Oprd1,SID363571903,71.8,66.1,inactive
Pik3r1,SID363555405,108,66.5,inactive
Pik3r1,SID363564066,74.5,75.8,inactive
Pik3r1,SID363587612,82.2,88.3,inactive
Wdr95,SID363542466,72.8,70.9,inactive
Wdr95,SID363551957,51.2,42.8,inactive
Wdr95,SID363559562,80.7,85.9,inactive
Rem1,SID363570015,120,101,active
Rem1,SID363576351,57.8,56.4,inactive
Rem1,SID363579519,82.8,80.6,inactive
H2ax,SID363545972,88.6,92.8,inactive
H2ax,SID363549485,57.3,88.3,inactive
H2ax,SID363563291,64.6,70.1,inactive
Ncoa6,SID363581875,101,124,inactive
Ncoa6,SID363589369,82.4,88.4,inactive
Pyy,SID363541623,62.2,45.7,inactive
Pyy,SID363553215,75.8,67.6,inactive
Pyy,SID363566539,74.3,76.1,inactive
Pbsn,SID363545701,83.7,99.6,inactive
Pbsn,SID363549214,85.1,88.1,inactive
Pbsn,SID363563020,63.1,52.1,inactive
Eif1b,SID363540696,69.5,46.9,inactive
Eif1b,SID363543147,48.2,39.5,inactive
Eif1b,SID363552640,86.2,84.7,inactive
Sdc4,SID363553621,38,30.5,inactive
Sdc4,SID363561578,54.4,66.7,inactive
Sdc4,SID363565316,67.3,65.3,inactive
Or5k8,SID363554333,86.2,51.8,inactive
Or5k8,SID363567780,58.9,69.1,inactive
Or5k8,SID363585137,48.2,104,inactive
Ccdc150,SID363542308,77.4,74.1,inactive
Ccdc150,SID363551799,60.3,39.5,inactive
Ccdc150,SID363559404,89.8,68.9,inactive
Arel1,SID363541677,56.2,61.4,inactive
Arel1,SID363553269,58.8,55.3,inactive
Arel1,SID363566593,67.8,68.6,inactive
Kif20a,SID363572186,38.6,60.5,inactive
Kif20a,SID363573946,94.5,86.9,inactive

Quoted from above for reference:
gene,PubChem SID,"GFP, % of control","viability (ATP), % of control",activity call
Wdr95,SID363542466,72.8,70.9,inactive
Wdr95,SID363551957,51.2,42.8,inactive
Wdr95,SID363559562,80.7,85.9,inactive
Rem1,SID363570015,120,101,active
